According to the supplement of paper PMC7666118:
The other results are listed elsewhere or left out.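 Rule for the calls: active = dose-dependent thermal stabilisation significant by F-test of dose-response against flat model at 10% FDR; inactive = not significant.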

Protein sequences, listed by entry. Tags and fused reporters are not part of them. Lines headed by an entry give the natural chain unless they say otherwise; changes in a name come on top.
UniProt P18440: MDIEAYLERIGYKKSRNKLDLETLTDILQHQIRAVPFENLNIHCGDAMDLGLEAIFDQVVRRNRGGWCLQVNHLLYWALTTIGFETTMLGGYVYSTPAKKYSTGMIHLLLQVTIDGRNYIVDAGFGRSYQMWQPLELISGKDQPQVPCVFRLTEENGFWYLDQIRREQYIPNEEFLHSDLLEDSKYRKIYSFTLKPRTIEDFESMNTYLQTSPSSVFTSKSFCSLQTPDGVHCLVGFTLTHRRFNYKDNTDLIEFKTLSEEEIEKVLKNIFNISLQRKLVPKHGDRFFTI
UniProt Q9UBB6: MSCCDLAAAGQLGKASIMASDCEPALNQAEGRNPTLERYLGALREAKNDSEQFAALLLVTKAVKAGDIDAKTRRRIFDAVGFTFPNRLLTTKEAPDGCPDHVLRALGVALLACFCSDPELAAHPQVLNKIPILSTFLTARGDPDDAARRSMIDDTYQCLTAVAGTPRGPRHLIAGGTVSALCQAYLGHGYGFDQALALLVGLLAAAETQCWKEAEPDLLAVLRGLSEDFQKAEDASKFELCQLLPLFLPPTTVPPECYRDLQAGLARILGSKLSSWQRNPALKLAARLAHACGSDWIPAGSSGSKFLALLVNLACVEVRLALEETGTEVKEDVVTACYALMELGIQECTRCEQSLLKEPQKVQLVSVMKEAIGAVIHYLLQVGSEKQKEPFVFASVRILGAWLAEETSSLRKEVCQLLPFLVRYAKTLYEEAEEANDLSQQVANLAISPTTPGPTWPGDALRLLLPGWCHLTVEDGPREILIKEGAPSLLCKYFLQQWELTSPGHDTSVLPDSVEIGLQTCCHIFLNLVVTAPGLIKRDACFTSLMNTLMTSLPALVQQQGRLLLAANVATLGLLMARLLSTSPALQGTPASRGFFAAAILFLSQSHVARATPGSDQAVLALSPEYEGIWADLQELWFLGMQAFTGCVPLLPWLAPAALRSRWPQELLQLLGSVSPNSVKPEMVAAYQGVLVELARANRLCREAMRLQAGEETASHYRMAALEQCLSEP
UniProt Q15596: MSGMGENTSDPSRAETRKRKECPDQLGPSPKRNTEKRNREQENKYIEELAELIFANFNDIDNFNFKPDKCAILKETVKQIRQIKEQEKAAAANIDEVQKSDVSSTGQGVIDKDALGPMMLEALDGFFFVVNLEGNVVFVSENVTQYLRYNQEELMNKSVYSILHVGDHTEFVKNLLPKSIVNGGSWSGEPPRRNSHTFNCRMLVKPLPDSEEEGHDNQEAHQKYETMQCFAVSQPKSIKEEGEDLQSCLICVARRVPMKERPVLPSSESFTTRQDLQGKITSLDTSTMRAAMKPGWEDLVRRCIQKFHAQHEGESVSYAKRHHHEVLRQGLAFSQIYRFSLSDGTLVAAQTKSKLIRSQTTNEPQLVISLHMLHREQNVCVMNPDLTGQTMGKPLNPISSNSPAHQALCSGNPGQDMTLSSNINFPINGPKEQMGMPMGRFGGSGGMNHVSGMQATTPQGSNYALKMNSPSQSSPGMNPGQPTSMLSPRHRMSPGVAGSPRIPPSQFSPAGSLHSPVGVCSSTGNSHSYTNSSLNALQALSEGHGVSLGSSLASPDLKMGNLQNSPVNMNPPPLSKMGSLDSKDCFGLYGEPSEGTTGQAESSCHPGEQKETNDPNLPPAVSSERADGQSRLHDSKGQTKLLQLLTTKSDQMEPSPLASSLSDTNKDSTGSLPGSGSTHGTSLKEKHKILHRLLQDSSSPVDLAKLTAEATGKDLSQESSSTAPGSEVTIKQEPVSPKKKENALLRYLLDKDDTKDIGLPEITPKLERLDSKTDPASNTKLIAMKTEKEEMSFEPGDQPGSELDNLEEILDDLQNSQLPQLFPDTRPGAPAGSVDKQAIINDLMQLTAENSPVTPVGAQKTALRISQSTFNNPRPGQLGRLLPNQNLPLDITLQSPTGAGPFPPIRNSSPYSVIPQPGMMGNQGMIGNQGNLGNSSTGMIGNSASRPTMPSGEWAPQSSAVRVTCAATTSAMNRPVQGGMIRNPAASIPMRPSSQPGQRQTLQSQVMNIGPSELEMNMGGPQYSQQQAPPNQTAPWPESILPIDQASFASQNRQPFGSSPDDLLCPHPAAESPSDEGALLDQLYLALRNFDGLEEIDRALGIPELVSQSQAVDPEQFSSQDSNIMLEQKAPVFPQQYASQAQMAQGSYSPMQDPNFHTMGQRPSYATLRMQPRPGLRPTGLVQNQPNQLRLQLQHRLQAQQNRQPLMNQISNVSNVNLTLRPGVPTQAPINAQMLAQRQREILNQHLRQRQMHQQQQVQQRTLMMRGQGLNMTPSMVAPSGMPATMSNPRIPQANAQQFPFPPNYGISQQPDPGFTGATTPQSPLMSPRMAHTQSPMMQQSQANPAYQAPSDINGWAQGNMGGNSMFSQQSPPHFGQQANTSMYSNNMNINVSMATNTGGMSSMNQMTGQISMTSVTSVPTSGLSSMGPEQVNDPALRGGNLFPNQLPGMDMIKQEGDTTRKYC
UniProt P61916: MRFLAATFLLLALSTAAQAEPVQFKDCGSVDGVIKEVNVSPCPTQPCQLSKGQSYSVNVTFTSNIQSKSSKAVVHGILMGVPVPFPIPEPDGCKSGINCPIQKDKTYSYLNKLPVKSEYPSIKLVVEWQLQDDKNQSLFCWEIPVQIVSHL
UniProt Q92597: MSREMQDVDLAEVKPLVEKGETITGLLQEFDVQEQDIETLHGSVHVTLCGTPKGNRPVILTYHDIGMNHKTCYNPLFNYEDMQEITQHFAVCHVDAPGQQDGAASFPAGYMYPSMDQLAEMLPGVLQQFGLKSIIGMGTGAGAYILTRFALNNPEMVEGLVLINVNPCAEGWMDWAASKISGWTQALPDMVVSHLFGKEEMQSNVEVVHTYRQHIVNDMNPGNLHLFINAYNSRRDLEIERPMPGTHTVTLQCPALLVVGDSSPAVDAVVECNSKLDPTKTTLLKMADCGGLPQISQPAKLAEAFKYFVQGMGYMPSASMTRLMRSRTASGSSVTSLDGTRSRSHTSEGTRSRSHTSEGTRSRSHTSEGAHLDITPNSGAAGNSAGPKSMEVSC
UniProt Q9BYT8, whole entry, looked up: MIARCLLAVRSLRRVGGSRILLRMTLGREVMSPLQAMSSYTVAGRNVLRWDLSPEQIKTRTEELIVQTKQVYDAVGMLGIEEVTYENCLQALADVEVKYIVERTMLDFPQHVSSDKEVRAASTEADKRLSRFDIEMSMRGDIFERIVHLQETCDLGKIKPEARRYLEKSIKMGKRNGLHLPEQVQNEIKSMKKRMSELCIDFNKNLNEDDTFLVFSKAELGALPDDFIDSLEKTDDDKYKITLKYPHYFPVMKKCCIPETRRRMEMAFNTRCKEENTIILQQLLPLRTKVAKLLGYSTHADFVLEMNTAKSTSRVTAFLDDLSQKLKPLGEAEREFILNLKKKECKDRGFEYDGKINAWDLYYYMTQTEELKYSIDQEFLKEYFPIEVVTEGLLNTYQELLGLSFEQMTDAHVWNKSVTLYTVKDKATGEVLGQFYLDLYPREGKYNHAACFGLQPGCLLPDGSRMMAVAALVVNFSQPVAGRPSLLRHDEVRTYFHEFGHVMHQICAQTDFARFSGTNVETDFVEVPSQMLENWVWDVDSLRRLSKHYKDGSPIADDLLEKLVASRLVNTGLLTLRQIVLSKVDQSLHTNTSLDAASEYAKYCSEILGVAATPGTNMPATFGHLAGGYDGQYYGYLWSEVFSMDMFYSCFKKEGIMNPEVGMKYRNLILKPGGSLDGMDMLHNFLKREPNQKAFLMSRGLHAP
UniProt Q8WVJ2: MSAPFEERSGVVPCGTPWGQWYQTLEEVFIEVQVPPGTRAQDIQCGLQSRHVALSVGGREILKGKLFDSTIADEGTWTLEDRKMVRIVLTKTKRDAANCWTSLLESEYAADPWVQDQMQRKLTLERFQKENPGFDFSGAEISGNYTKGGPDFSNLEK
UniProt Q13564: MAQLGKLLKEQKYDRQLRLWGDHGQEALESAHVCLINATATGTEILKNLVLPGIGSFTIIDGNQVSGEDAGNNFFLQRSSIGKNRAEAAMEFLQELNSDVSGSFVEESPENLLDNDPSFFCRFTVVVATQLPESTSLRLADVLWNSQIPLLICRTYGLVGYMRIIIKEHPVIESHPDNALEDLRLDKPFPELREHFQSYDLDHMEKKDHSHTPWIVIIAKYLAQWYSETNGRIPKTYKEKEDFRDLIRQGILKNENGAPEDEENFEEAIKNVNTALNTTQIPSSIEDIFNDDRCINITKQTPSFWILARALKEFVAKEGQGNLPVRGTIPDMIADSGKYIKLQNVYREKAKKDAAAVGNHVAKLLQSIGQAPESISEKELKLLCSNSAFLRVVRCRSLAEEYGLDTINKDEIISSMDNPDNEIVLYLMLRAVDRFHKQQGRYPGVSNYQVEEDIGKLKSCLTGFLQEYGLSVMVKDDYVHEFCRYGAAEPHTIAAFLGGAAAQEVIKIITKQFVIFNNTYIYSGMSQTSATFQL
UniProt Q99733: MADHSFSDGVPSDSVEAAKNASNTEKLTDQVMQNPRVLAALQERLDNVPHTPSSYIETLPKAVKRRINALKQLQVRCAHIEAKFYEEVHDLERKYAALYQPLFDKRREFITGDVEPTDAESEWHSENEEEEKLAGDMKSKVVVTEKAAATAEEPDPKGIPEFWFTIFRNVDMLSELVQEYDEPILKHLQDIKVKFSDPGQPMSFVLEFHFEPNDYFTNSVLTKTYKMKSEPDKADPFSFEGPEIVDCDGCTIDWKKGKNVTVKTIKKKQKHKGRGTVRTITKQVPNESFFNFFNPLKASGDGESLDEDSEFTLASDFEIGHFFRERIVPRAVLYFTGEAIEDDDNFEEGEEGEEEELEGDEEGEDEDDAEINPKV
UniProt Q15843, whole entry: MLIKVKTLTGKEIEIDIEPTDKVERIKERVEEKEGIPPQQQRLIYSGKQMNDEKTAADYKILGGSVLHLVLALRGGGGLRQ
UniProt P19404, whole entry: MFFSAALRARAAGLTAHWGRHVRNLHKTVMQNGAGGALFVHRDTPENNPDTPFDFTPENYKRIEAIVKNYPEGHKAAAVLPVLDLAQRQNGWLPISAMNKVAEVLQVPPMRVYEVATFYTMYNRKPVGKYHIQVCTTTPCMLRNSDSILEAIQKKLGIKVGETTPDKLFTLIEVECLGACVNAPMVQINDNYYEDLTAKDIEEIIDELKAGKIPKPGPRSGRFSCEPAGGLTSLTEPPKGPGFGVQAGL
UniProt Q13177, whole entry: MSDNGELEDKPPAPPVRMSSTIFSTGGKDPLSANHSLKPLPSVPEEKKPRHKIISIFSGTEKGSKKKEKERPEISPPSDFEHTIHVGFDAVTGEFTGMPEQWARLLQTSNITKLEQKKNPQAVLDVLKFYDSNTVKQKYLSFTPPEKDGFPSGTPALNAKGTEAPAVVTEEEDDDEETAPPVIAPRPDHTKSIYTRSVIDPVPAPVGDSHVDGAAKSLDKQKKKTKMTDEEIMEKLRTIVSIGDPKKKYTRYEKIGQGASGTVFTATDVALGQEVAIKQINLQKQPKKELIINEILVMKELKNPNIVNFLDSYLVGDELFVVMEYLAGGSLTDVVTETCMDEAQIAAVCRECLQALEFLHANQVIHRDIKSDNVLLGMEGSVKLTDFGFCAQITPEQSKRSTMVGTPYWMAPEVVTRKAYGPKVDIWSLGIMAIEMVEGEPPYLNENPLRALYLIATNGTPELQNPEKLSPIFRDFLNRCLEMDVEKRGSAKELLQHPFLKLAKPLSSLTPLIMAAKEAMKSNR
UniProt Q9GZM8: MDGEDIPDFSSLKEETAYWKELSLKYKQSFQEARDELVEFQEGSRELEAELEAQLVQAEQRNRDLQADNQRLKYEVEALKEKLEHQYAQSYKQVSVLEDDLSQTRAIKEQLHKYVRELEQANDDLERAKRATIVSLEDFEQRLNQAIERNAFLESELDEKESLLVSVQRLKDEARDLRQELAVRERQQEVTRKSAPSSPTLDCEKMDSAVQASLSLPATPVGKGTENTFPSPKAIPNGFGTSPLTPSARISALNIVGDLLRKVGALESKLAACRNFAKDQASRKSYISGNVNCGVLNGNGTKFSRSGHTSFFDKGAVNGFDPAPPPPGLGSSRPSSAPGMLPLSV
UniProt Q9BRJ7: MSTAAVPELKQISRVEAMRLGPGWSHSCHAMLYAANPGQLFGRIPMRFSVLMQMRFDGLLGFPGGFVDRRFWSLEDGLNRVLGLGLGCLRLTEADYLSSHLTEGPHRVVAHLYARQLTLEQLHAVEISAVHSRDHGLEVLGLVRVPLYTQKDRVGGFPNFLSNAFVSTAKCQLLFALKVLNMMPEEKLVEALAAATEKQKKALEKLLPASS
UniProt Q9BRP4: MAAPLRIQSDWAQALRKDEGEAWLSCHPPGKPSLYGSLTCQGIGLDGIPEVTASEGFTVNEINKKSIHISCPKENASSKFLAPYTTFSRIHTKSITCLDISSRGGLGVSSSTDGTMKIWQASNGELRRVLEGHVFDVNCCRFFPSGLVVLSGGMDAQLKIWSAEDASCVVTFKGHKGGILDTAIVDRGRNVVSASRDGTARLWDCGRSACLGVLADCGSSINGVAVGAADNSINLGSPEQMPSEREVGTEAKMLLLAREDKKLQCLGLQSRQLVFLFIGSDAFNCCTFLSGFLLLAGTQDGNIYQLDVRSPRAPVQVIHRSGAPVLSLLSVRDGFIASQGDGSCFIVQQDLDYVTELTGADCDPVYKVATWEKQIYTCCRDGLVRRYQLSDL

What follows are targets tested with Nc1nc2c(ncn2[C@@H]2O[C@H](COP(=O)(O)OP(=O)(O)OP(=O)(O)O)[C@@H](O)[C@H]2O)c(=O)[nH]1 (assay: dose-dependent thermal stabilisation call (2D-TPP, DLPTP, 10% FDR) (binary (1 = stabilised)); higher = stabilised by the compound). Details: system: Jurkat gel-filtered lysate; concentration range 1-500 µM.

Row | Target | dose-dependent thermal stabilisation call
1 | NAT1 (UniProt P18440) | inactive: 0
2 | NCDN (UniProt Q9UBB6) | inactive: 0
3 | OGFOD1 (UniProt Q8N543) | inactive: 0
4 | NUMA1 (UniProt Q14980) | inactive: 0
5 | NCOA2 (UniProt Q15596) | inactive: 0
6 | NUP133 (UniProt Q8WUM0) | inactive: 0
7 | PALD1 (UniProt Q9ULE6) | inactive: 0
8 | NCK1 (UniProt P16333) | inactive: 0
9 | NPC2 (UniProt P61916) | inactive: 0
10 | NUFIP2 (UniProt Q7Z417) | inactive: 0
11 | NDRG1 (UniProt Q92597) | inactive: 0
12 | NLN (UniProt Q9BYT8) | inactive: 0
13 | NUP58 (UniProt Q9BVL2) | inactive: 0
14 | NEDD1 (UniProt Q8NHV4) | inactive: 0
15 | NUDCD2 (UniProt Q8WVJ2) | inactive: 0
16 | NAE1 (UniProt Q13564) | inactive: 0
17 | NFX1 (UniProt Q12986) | inactive: 0
18 | NAP1L4 (UniProt Q99733) | inactive: 0

Looked up above.
For dose-dependent thermal stabilisation call, NUMA1 (UniProt Q14980) is listed with inactive: 0
For dose-dependent thermal stabilisation call, NFX1 (UniProt Q12986) is listed with inactive: 0

(listing goes on)

Row | Target | dose-dependent thermal stabilisation call
19 | PAPOLA (UniProt P51003) | inactive: 0
20 | NEDD8 (UniProt Q15843) | inactive: 0
21 | NHLRC2 (UniProt Q8NBF2) | active: 1
22 | NRBF2 (UniProt Q96F24) | inactive: 0
23 | NOTCH2 (UniProt Q04721) | inactive: 0
24 | NFYB (UniProt P25208) | inactive: 0
25 | NUDT14 (UniProt O95848) | inactive: 0
26 | NDUFV2 (UniProt P19404) | inactive: 0
27 | OTULIN (UniProt Q96BN8) | inactive: 0
28 | PAK2 (UniProt Q13177) | inactive: 0
29 | NFATC3 (UniProt Q12968) | inactive: 0
30 | NDEL1 (UniProt Q9GZM8) | inactive: 0
31 | PAPSS1 (UniProt O43252) | inactive: 0
32 | NUDT16L1 (UniProt Q9BRJ7) | inactive: 0
33 | PAAF1 (UniProt Q9BRP4) | inactive: 0
34 | NONO (UniProt Q15233) | inactive: 0
35 | NTAN1 (UniProt Q96AB6) | inactive: 0
36 | OLA1 (UniProt Q9NTK5) | inactive: 0
